The target of the assay is T1, Ubiquitin-specific peptidase 1 (USP1) (human (endogenous in Nthy-ori 3-1)) (UniProt O94782).
T1 sequence: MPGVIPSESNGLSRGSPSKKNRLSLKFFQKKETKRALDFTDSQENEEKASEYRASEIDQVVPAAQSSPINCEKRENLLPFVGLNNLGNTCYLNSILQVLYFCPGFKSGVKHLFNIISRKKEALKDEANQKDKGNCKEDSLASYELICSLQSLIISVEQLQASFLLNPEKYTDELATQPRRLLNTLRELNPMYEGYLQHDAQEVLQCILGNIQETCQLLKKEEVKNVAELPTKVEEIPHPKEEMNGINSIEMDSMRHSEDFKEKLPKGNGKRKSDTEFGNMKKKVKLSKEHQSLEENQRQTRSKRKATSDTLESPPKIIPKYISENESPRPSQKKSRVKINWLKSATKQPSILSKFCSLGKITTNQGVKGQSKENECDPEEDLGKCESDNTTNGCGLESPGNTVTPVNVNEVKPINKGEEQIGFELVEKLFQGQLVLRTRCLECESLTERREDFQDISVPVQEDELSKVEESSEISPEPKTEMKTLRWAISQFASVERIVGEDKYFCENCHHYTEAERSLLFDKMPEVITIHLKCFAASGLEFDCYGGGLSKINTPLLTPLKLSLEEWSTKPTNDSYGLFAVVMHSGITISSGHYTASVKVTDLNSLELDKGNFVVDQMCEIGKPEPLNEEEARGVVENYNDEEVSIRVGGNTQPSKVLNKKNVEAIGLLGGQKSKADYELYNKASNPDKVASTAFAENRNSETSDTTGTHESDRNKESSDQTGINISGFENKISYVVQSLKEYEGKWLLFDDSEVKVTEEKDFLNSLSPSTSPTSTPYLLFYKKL
The assay can be described thus: co-IP; endogenous proteins in Nthy-ori 3-1 cells; cells lysed in RIPA lysis buffer, lysates incubated with primary antibodies overnight at 4 °C, then protein A/G agarose 2.5 h at 4 °C, eluted and immunoblotted. A general note: Immunoblotting shows a protein as a band on a membrane.

Chains of the proteins cited; added tags and fusions are not shown.
UniProt Q96P20: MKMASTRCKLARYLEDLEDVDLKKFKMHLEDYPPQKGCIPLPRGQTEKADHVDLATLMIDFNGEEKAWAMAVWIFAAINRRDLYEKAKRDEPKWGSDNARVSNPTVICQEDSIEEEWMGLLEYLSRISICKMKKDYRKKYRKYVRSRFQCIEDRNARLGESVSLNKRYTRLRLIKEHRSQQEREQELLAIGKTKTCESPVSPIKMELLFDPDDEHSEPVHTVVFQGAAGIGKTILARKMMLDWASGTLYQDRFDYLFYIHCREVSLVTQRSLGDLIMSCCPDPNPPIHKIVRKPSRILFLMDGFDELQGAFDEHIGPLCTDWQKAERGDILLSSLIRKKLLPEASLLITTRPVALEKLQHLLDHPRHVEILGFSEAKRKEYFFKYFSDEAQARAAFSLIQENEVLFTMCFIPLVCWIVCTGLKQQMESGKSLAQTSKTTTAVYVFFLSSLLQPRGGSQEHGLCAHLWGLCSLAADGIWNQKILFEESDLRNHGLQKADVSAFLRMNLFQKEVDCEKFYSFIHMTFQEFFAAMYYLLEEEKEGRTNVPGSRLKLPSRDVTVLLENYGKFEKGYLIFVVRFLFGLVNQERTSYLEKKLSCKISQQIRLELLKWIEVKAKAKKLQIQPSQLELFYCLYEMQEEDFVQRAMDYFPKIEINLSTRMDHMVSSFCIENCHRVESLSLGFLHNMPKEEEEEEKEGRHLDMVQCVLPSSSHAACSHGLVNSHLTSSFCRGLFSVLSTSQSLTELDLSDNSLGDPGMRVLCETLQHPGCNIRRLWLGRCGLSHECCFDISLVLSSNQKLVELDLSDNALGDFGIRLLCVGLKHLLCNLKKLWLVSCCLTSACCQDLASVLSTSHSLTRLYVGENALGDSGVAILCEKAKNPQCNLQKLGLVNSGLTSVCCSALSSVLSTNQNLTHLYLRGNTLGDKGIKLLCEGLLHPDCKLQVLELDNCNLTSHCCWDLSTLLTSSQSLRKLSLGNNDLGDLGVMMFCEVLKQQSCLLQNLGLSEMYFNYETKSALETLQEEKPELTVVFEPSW

These are yes or no findings as the source states them, for the method shown. In cells and extracts the contact can be indirect. Some results given as binding are weak or reduced against the parent protein; the word gives no strength.

With NLRP3 (from UniProt Q96P20 1-1036), the binding result is “binds”.

B1: absent in melanoma 2 (AIM2) (protein, UniProt O14862 1-343)
chain: MESKYKEILLLTGLDNITDEELDRFKFFLSDEFNIATGKLHTANRIQVATLMIQNAGAVSAVMKTIRIFQKLNYMLLAKRLQEEKEKVDKQYKSVTKPKPLSQAEMSPAASAAIRNDVAKQRAAPKVSPHVKPEQKQMVAQQESIREGFQKRCLPVMVLKAKKPFTFETQEGKQEMFHATVATEKEFFFVKVFNTLLKDKFIPKRIIIIARYYRHSGFLEVNSASRVLDAESDQKVNVPLNIIRKAGETPKINTLQTQPLGTIVNGLFVVQKVTEKKKNILFDLSDNTGKMEVLGVRNEDTMKCKEGDKVRLTFFTLSKNGEKLQLTSGVHSTIKVIKAKKKT
As for B1, the binding result was “binds”.
